These are yes or no findings as the source states them, for the method shown. Binding seen in cells or lysates may run through a third protein. Binding calls can cover weak binding; strength is not graded here. Sequences can lack the tags named with a protein.
Target: T1, Flag-ELL (human) (UniProt P55199)
T1 sequence: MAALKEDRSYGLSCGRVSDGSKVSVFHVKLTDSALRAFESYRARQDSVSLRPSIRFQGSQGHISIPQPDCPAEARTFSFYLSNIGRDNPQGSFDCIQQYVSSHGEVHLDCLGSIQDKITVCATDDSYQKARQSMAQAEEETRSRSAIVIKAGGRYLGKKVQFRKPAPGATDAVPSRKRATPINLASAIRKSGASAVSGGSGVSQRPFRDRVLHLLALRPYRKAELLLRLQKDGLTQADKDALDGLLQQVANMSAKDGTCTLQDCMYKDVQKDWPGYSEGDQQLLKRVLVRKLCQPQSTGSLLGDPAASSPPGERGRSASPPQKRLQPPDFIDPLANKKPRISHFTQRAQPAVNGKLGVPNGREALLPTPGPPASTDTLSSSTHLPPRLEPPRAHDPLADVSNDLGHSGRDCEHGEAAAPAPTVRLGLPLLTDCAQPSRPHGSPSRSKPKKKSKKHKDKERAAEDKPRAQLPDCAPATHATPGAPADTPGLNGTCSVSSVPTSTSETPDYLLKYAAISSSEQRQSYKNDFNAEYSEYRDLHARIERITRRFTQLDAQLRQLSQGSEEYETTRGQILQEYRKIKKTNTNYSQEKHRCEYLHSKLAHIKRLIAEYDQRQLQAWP
Test: co-IP; tagged proteins overexpressed by co-transfection in HEK293 or HEK293T cells; antibody-conjugated agarose beads (anti-c-Myc, anti-HA, anti-Flag); 2-3 times more HA-c-Myc plasmid where ELL was co-transfected

- binding: binds
Substance: HA-tagged c-Myc mutant with Max-binding domain (aa 1-354) deletion (from UniProt P01106-1) (domain or fragment)

From PMC4820845
